Results from PubChem BioAssay AID256 (DTP/NCI, 2004).
The list is a part of this screen's results and no random one: it is rich in T/C values a quarter to a half above the control, in often repeated tests (any T/C) and in doses without a T/C. Further doses and runs are listed elsewhere. T/C: endpoint of the treated group in % of that of the vehicle group. Some doses have a count of surviving animals in place of a T/C: the source holds a T/C of zero for them, seemingly a mark for toxic or unscored doses. Some survivor counts are full or nearly so, which does not show that the dose was tolerated: survival well below the control is almost never listed, so the zero probably covers shortened survival too. Survivors were counted at the toxicity check, usually on the fifth day, unless a day is given; later deaths do not show. Schedules are NCI's codes, read here as Q, the interval in days (D) or hours (H), X, the number of doses. Some entries were tested several times; the results are listed from low to high. For survival time, the PubChem record calls one and a half times the control and up active, and a quarter to a half above the control has no call in these data; cut-offs in other NCI protocols can differ. Some T/C values carry the count of animals alive at the toxicity check (mostly the fifth day); where none is given, no animal had died by that day.

Test system: CD2F1 mice, L1210 leukemia ip, survival T/C
Test: NCI In Vivo Anticancer Drug Screen. Data for tumor model L1210 Leukemia (intraperitoneal) in CD2F1 (CDF1) mice
Conditions: higher T/C = longer survival
Procedure, shortened: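 Compound-dosed mice with transplantable tumor versus matched vehicle controls; endpoint ratio T/C reported.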

[1] = T/C endpoint: mean survival time, dose: 50.0 mg/kg/injection, schedule: Q01DX009 (ip), vehicle: other
[2] = T/C endpoint: mean survival time, dose: 100.0 mg/kg/injection, schedule: Q04DX002 (ip), vehicle: saline with Tween-80
[3] = T/C endpoint: mean survival time, dose: 200.0 mg/kg/injection, schedule: Q04DX002 (ip), vehicle: saline with Tween-80
[4] = T/C endpoint: mean survival time, dose: 400.0 mg/kg/injection, schedule: Q04DX002 (ip), vehicle: saline with Tween-80
[5] = T/C endpoint: mean survival time, dose: 400.0 mg/kg/injection, schedule: Q01DX009 (ip), vehicle: saline with Tween-80
[6] = T/C endpoint: mean survival time, dose: 100.0 mg/kg/injection, schedule: Q01DX009 (ip), vehicle: saline with Tween-80
[7] = T/C endpoint: mean survival time, dose: 200.0 mg/kg/injection, schedule: Q01DX009 (ip), vehicle: saline with Tween-80
[8] = T/C endpoint: mean survival time, dose: 50.0 mg/kg/injection, schedule: Q01DX009 (ip), vehicle: saline with Tween-80
[9] = T/C endpoint: mean survival time, dose: 400.0 mg/kg/injection, schedule: Q04DX003 (ip), vehicle: saline with Tween-80

Compound: S=P(c1ccccc1)(N1CC1)N1CC1
- T/C (T/C endpoint: mean survival time, dose: 25.0 mg/kg/injection, schedule: Q01DX009 (ip), vehicle: other): 129 % of control
- T/C (T/C endpoint: mean survival time, dose: 33.0 mg/kg/injection, schedule: Q01DX009 (ip), vehicle: other): 143 % of control
- T/C [1]: 129 % of control
- survivor count [1]: 1 of 3
- T/C [2]: 133 % of control
- survivor count (T/C endpoint: mean survival time, dose: 112.5 mg/kg/injection, schedule: Q01DX009 (ip), vehicle: other): 2 of 6
- survivor count (T/C endpoint: mean survival time, dose: 150.0 mg/kg/injection, schedule: Q04DX003 (ip), vehicle: other): 3 of 6
- survivor count [3]: 3 of 3
- survivor count (T/C endpoint: mean survival time, dose: 225.0 mg/kg/injection, schedule: Q04DX002 (ip), vehicle: other): 6 of 6
- survivor count (T/C endpoint: mean survival time, dose: 225.0 mg/kg/injection, schedule: Q04DX003 (ip), vehicle: other): 0 of 6
- survivor count (T/C endpoint: mean survival time, dose: 600.0 mg/kg/injection, schedule: Q01DX001 (ip), vehicle: other): 3 of 6

Compound: CC(C)(C)OC(=O)NCCCCC(N)C(=O)OC(C)(C)C (centres undefined)
- survivor count (T/C endpoint: mean survival time, dose: 400.0 mg/kg/injection, schedule: Q04DX003 (ip), vehicle: saline): 0 of 6

Compound: NC(=O)c1ncn(C2CC3[O][Sn]([c]4ccccc4)([c]4ccccc4)[O]CC3O2)n1 (centres undefined)
- survivor count (T/C endpoint: mean survival time, dose: 50.0 mg/kg/injection, schedule: Q01DX005 (ip), vehicle: distilled water + Tween-80): 6 of 6

Compound: CC([NH-])C(=O)O.CC([NH-])C(=O)O.CC([NH-])C(=O)O.[Co+3] (centres undefined)
- survivor count (T/C endpoint: mean survival time, dose: 100.0 mg/kg/injection, schedule: Q01DX009 (ip), vehicle: saline): 5 of 6
- T/C [2]: 144 % of control
- survivor count [3]: 0 of 3
- survivor count [4]: 0 of 3

Compound: CCCCNC(=O)NCCc1ccc(OC)c(OC)c1
- survivor count [5]: 4 of 6

Compound: NC(=S)c1ccc(OCCCc2ccccc2)cc1
- survivor count [6]: 0 of 6 and 1 of 6
- survivor count [7]: 0 of 6
- survivor count [5]: 0 of 6

Compound: Nc1c(/C=C/c2cc3cc(C4=NCCN4)ccc3o2)[nH]c2cc(C3=NCCN3)ccc12
- T/C (T/C endpoint: median survival time, dose: 6.25 mg/kg/injection, schedule: Q01DX009 (ip), vehicle: Klucel (hydroxypropylcellulose) (HPC)): 130 % of control
- T/C (T/C endpoint: median survival time, dose: 12.5 mg/kg/injection, schedule: Q01DX005 (ip), vehicle: Klucel (hydroxypropylcellulose) (HPC)): 137 % of control
- T/C (T/C endpoint: median survival time, dose: 12.5 mg/kg/injection, schedule: Q01DX009 (ip), vehicle: Klucel (hydroxypropylcellulose) (HPC)): 139 % of control
- T/C (T/C endpoint: median survival time, dose: 25.0 mg/kg/injection, schedule: Q01DX009 (ip), vehicle: Klucel (hydroxypropylcellulose) (HPC)): 132 % of control [9 of 10 alive]
- survivor count (T/C endpoint: median survival time, dose: 50.0 mg/kg/injection, schedule: Q01DX009 (ip), vehicle: Klucel (hydroxypropylcellulose) (HPC)): 7 of 10
- survivor count (T/C endpoint: median survival time, dose: 83.33 mg/kg/injection, schedule: Q01DX005 (ip), vehicle: Klucel (hydroxypropylcellulose) (HPC)): 4 of 6
- survivor count (T/C endpoint: median survival time, dose: 100.0 mg/kg/injection, schedule: Q01DX005 (ip), vehicle: Klucel (hydroxypropylcellulose) (HPC)): 1 of 6
- survivor count (T/C endpoint: median survival time, dose: 138.88 mg/kg/injection, schedule: Q01DX005 (ip), vehicle: Klucel (hydroxypropylcellulose) (HPC)): 0 of 6
- survivor count (T/C endpoint: median survival time, dose: 200.0 mg/kg/injection, schedule: Q01DX005 (ip), vehicle: Klucel (hydroxypropylcellulose) (HPC)): 0 of 6

Compound: O=C(Nc1ccc(Cl)c(Cl)c1)c1ccc(Cl)c(Cl)c1
- survivor count [3]: 3 of 3

Compound: CC(=O)Oc1cccc2cc3cc(C)cc(OC(C)=O)c3c(OC(C)=O)c12
- survivor count (T/C endpoint: mean survival time, dose: 100.0 mg/kg/injection, schedule: Q01DX001 (ip), vehicle: saline): 0 of 6
- survivor count (T/C endpoint: mean survival time, dose: 200.0 mg/kg/injection, schedule: Q01DX001 (ip), vehicle: saline): 0 of 6
- survivor count (T/C endpoint: mean survival time, dose: 400.0 mg/kg/injection, schedule: Q01DX001 (ip), vehicle: saline): 0 of 6

Compound: CNC(=O)Nc1ccc(C(=O)NC(C)C)cc1
- T/C [1]: 132 % of control
- survivor count (T/C endpoint: mean survival time, dose: 75.0 mg/kg/injection, schedule: Q01DX009 (ip), vehicle: other): 6 of 6

Compound: COc1cc(-c2ccncc2)nc(OC)n1
- survivor count [4]: 0 of 3

Compound: N#CC(=C=[N-])[n+]1ccccc1
- survivor count (T/C endpoint: mean survival time, dose: 50.0 mg/kg/injection, schedule: Q04DX003 (ip), vehicle: Klucel (hydroxypropylcellulose) (HPC)): 3 of 6

Compound: NC(N)=NCCNC(=O)C1CCC(N)C1 (centres undefined)
- survivor count (T/C endpoint: mean survival time, dose: 2.5 mg/kg/injection, schedule: Q01DX009 (ip), vehicle: saline): 6 of 6
- survivor count (T/C endpoint: mean survival time, dose: 5.0 mg/kg/injection, schedule: Q01DX009 (ip), vehicle: saline): 6 of 6

Compound: C=C1C[C@@H](O)[C@H](O)[C@@]2(C)C[C@@H]3OC(=O)C(=C)[C@@H]3C[C@H]12
- survivor count [7]: 2 of 6
- survivor count [5]: 0 of 6

Compound: Cc1cccc(C(=O)C=C(C(F)(F)F)C(F)(F)F)c1
- survivor count [8]: 6 of 6

Compound: CN(C)c1nc2c(c(=O)n(C)c(=O)n2C)n1C
- survivor count (T/C endpoint: mean survival time, dose: 200.0 mg/kg/injection, schedule: Q01DX005 (ip), vehicle: distilled water + Tween-80): 1 of 6

Compound: Cc1cccc(/C=N/OCCC(C)C)n1
- survivor count [9]: 3 of 6

Compound: O=C1C=CC(=O)N1c1ccc(Cl)cc1Cl
- survivor count (T/C endpoint: mean survival time, dose: 50.0 mg/kg/injection, schedule: Q04DX003 (ip), vehicle: saline with Tween-80): 0 of 3

Compound: COC1=C(N)C(=O)c2nc(-c3nc(C(=O)O)c(C)c(-c4ccc(OC)c(OC)c4O)c3N)ccc2C1=O
- survivor count (T/C endpoint: mean survival time, dose: 1.0 mg/kg/injection, schedule: Q01DX009 (ip), vehicle: saline with Tween-80): 3 of 6
- survivor count (T/C endpoint: mean survival time, dose: 2.0 mg/kg/injection, schedule: Q04DX003 (ip), vehicle: saline with Tween-80): 3 of 6

Compound: COC(=O)c1ccc(N=NN(C)C)cc1
- T/C (T/C endpoint: mean survival time, dose: 108.0 mg/kg/injection, schedule: Q01DX009 (ip), vehicle: Klucel (hydroxypropylcellulose) (HPC)): 133 % of control

Compound: Cc1cc(Cl)ccc1NC(=O)Nc1nccs1
- survivor count [8]: 3 of 3

Compound: CCCCCCCCCCCCCCCC(=O)N(CCCN(C)C)C1CCC(N(CCCN(C)C)C(=O)CCCCCCCCCCCCCCC)CC1 (centres undefined)
- survivor count (T/C endpoint: mean survival time, dose: 25.0 mg/kg/injection, schedule: Q01DX009 (ip), vehicle: saline with Tween-80): 3 of 6
- survivor count [8]: 3 of 6
- survivor count (T/C endpoint: mean survival time, dose: 100.0 mg/kg/injection, schedule: Q04DX003 (ip), vehicle: saline with Tween-80): 2 of 6
- survivor count (T/C endpoint: mean survival time, dose: 200.0 mg/kg/injection, schedule: Q04DX003 (ip), vehicle: saline with Tween-80): 0 of 6
- survivor count [9]: 0 of 6

Compound: COc1cc2c(cc1O)N=C[C@@H]1CCC(O)N1C2=O (mixture of isomers)
- T/C (T/C endpoint: mean survival time, dose: 4.0 mg/kg/injection, schedule: Q01DX009 (ip), vehicle: saline): 126 % of control
- T/C (T/C endpoint: mean survival time, dose: 8.0 mg/kg/injection, schedule: Q01DX009 (ip), vehicle: saline): 131 % of control
- survivor count (T/C endpoint: mean survival time, dose: 16.0 mg/kg/injection, schedule: Q01DX009 (ip), vehicle: saline): 0 of 6 and 3 of 6
- survivor count (T/C endpoint: mean survival time, dose: 32.0 mg/kg/injection, schedule: Q01DX009 (ip), vehicle: saline): 0 of 6
- T/C (T/C endpoint: median survival time, dose: 3.2 mg/kg/injection, schedule: Q01DX005 (ip), vehicle: saline): 127 % of control
- survivor count (T/C endpoint: median survival time, dose: 6.4 mg/kg/injection, schedule: Q01DX005 (ip), vehicle: saline): 3 of 6
- survivor count (T/C endpoint: median survival time, dose: 9.6 mg/kg/injection, schedule: Q01DX005 (ip), vehicle: saline): 1 of 6

Compound: O=C(Nc1ccc(NC2=NCCN2)cc1)c1ccc(C(=O)Nc2ccc(NC3=NCCN3)cc2)cc1
- T/C (T/C endpoint: mean survival time, dose: 6.0 mg/kg/injection, schedule: Q01DX008 (iv), vehicle: water): 130 % of control
- survivor count (T/C endpoint: mean survival time, dose: 9.0 mg/kg/injection, schedule: Q01DX008 (iv), vehicle: water): 0 of 7

Compound: Clc1ccc(Br)c2c1CCC2
- survivor count (T/C endpoint: mean survival time, dose: 400.0 mg/kg/injection, schedule: Q04DX003 (ip), vehicle: acetone): 2 of 6

Compound: CCOC(=O)Nc1cc(NCc2ccccc2)c([N+](=O)[O-])c(N)n1
- survivor count (T/C endpoint: mean survival time, dose: 100.0 mg/kg/injection, schedule: Q01DX001 (ip), vehicle: Klucel (hydroxypropylcellulose) (HPC)): 5 of 6
- survivor count (T/C endpoint: mean survival time, dose: 200.0 mg/kg/injection, schedule: Q01DX001 (ip), vehicle: Klucel (hydroxypropylcellulose) (HPC)): 6 of 6
- survivor count (T/C endpoint: mean survival time, dose: 400.0 mg/kg/injection, schedule: Q01DX001 (ip), vehicle: Klucel (hydroxypropylcellulose) (HPC)): 6 of 6

Compound: O=C(/C=C/c1ccccc1O)/C=C/c1ccccc1O
- survivor count [6]: 3 of 6
